Measured values taken from patent US20220389120A1.
These are yes or no findings as the source states them, for the method shown. Some binding calls cover weakened binding; strength is not graded here.

Amino acid sequences for entries named in this document (tags omitted). Residues count along the entry.
UniProt O15123, residues 19-496: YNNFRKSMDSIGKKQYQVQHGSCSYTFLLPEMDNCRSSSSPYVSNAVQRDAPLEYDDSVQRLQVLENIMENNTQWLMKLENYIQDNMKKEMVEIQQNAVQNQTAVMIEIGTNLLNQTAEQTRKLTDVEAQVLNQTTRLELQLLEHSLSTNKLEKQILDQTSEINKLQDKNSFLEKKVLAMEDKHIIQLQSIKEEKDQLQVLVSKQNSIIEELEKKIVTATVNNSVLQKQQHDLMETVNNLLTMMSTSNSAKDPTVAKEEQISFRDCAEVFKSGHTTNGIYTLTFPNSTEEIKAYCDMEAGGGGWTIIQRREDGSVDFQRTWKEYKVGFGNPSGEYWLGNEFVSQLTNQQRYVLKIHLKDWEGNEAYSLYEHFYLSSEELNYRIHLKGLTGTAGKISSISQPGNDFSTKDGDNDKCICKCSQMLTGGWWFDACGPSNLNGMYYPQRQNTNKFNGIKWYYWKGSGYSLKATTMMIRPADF

Molecular target: recombinant human Ang2 (Biolegend) (human) (UniProt O15123)
Assay: Tie2-Ang2 blocking ELISA

binding: binds
B1: Bi-ZTO (Fc fusion)
chain: SDTGRPFVEMYSEIPEIIHMTEGRELVIPCRVTSPNITVTLKKFPLDTLIPDGKRIIWDSRKGFIISNATYKEIGLLTCEATVNGHLYKTNYLTHRQTNTIIDVVLSPSHGIELSVGEKLVLNCTARTELNVGIDFNWEYPSSKHQHKKLVNRDLKTQSGSEMKKFLSTLTIDGVTRSDQGLYTCAASSGLMTKKNSTFVRVHEKESKYGPPCPPCPAPEFLGGPSVFLFPPKPKDTLMISRTPEVTCVVVDVSQEDPEVQFNWYVDGVEVHNAKTKPREEQFNSTYRVVSVLTVLHQDWLNGKEYKCKVSNKGLPSSIEKTISKAKGQPREPQVYTLPPSQEEMGGAQQEECEWDPWTCEHMGSGSATGGSGSTASSGSGSATHQEECEWDPWTCEHMGGTKNQVSLTCLVKGFYPSDIAVEWESNGQPENNYKTTPPVLDSDGSFFLYSRLTVDKSRWQEGNVFSCSVMHEALHNHYTQKSLSLSLGK
